# Measurements taken from PubChem BioAssay AID1347076 (National Center for Advancing Translational Sciences (NCATS), 2019).
# About 13,000 (3.2%) of roughly 400,000 compounds were called active. The inconclusive results got no clear call from the source; some entries with a clear call stand among them for comparison. Calls follow the shape of the dose curve; as a rule, active = well fitted cell-killing curve with a large enough effect; inconclusive = small, poorly fitted or top-dose-only effect, or effect the other way; inactive = flat fitted curve, though single readings scatter. Potencies beside an inconclusive call are fits to weak or partial responses and may not hold up.
# Assay: qHTS assay for MDR1-selective chemotherapeutics: Primary screen using the drug-selected MDR subline cells KB-V1; also: nearly all actives have a fitted effect of over 60% in size
# Settings: KB-V1 MDR cells viability, CellTiter-Glo, 72 h; activity change, negative = cytotoxicity: at 46.1 µM (top of the series)
# Summary of the method: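 Luminescent ATP read-out (CellTiter-Glo, 10 min) measures survival of drug-selected KB-V1 MDR cells after 72 h, 37 degrees C compound exposure. Medium: phenol-red-free DMEM, 10% FBS. Values from fitted concentration-response curves.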
# % is scaled to controls: 0 for no effect and ±100 for the full control effect; potency is read from the fitted curve at half-maximal effect.
SMILES,Potency,"activity change, negative = cytotoxicity"
Cc1cc(C)c2c3c(sc2n1)C(c1cccc(F)c1)C(C#N)=C(N)O3 (stereo unspecified),"inconclusive: 18.4 µM [cytotoxic, single point]",–
Cc1ccc(NC(=O)c2ccccc2OCc2ccc([N+](=O)[O-])cc2)nc1,–,inactive: -34%
CCc1ccc(-n2nc(C)c3c(C(=O)N4CCN(c5cccc(Cl)c5)CC4)cc(C)nc32)cc1,–,inactive: -18.7%
CCOC(=O)c1c(CN(C)C)n(-c2ccccc2)c2cc(Br)c(O)cc12,"inconclusive: 10.3 µM [cytotoxic, partial curve]",–
Cc1ccc(S(=O)(=O)N2c3ccccc3OCC2c2ccccc2)cc1 (stereo unspecified),"inconclusive: 29.1 µM [cytotoxic, single point]",–
COc1cc(OC)c(NC(=O)NCc2cccn2Cc2ccccc2)cc1Cl,–,inactive: -22.1%
COc1ccc(CN2CC[C@@H](N3CCOCC3)[C@H](O)C2)cc1F,"inconclusive: 32.6 µM [rising, partial curve, poor fit]",–
CCOc1cc(C(=O)OCc2cc(=O)n3nc(C4CC4)sc3n2)cc(OCC)c1OCC,–,inactive: 1.11%
COc1ccc(CC(=O)Nc2ccc3nc(SC)sc3c2)cc1OC,"inconclusive: 29.1 µM [cytotoxic, single point]",–
O=C1COC(c2ccccc2)C2CCCCN12 (stereo unspecified),"inconclusive: 29.1 µM [cytotoxic, single point]",–
CC(=O)OCC(=O)C1CCC2C3CCC4=CC(=O)C=CC4(C)C3CCC12C (stereo unspecified),active: 16.4 µM,–
CCC1([N+](=O)[O-])COC(c2ccc(C(C)C)cc2)OC1 (stereo unspecified),"inconclusive: 29.1 µM [rising, single point]",–
CCN(CC)S(=O)(=O)c1cccc(-c2n[nH]c(=S)n2CC(C)C)c1,"inconclusive: 18.4 µM [cytotoxic, single point]",–
CC(C)CC(NC(=O)C1CCCCC1)C(=O)N1CCN(c2ccccn2)CC1 (stereo unspecified),active: 2.59 µM,–
O=C(Nc1cccc(F)c1)C1CCCN(c2cnccn2)C1 (stereo unspecified),"inconclusive: 2.59 µM [rising, full curve]",–
C/C(=N\Nc1ccc([N+](=O)[O-])cc1)c1ccc(O)cc1,–,inactive: 7.19%
CC(C)CN(Cc1cc2ccccc2[nH]c1=O)C(=O)c1cccnc1,"inconclusive: 14.6 µM [cytotoxic, single point]",–
Cc1cc2nc(C3CCCCC3)c(Cc3ccccc3)n2c(C)c1Br,–,inactive: -4.64%
CCOc1cc2[nH]c(=O)n(CCCC(=O)NCc3ccc(OC)cc3)c(=O)c2cc1OCC,"inconclusive: 23.1 µM [rising, partial curve, poor fit]",–
O=C(CCc1nnc(-c2ccc3c(c2)OCO3)o1)NC(c1ccccn1)C(F)(F)F (stereo unspecified),"inconclusive: 29.1 µM [cytotoxic, partial curve, poor fit]",–
COc1ccc(C(=O)O)cc1NCc1ccc(C)s1,"inconclusive: 16.4 µM [rising, single point]",–
CC(C)(C)C(=O)Nc1ccc(C(=O)N/N=C/c2ccccc2OC(=O)c2ccccc2)cc1,"inconclusive: 14.6 µM [cytotoxic, single point]",–
COc1ccccc1NC(=S)NCCC(c1ccccc1)c1ccccc1,–,inactive: -26.8%
CCCCN(C(=O)COC(=O)c1ccc(C=O)cc1)c1c(N)n(CCC)c(=O)[nH]c1=O,–,inactive: -3.04%

SMILES,Potency,"activity change, negative = cytotoxicity"
CCOC(=O)c1[nH]c(C)c(C(=O)OCC(=O)NCc2ccc(OC)cc2)c1C,"inconclusive: 20.6 µM [cytotoxic, single point]",–
Cc1ccc(C)c(OCCn2nnc3ccccc32)c1,"inconclusive: 13 µM [cytotoxic, partial curve]",–
O=C(CNC(=O)c1cccc(Cl)c1)NCCCSc1ccccc1,–,inactive: -1.85%
CC(C)C(c1nnnn1Cc1ccc(F)cc1)N1CCN(C(=O)c2ccco2)CC1 (stereo unspecified),"inconclusive: 9.2 µM [cytotoxic, partial curve]",–
Cc1ccc(NC(=O)C(=O)NCC(c2cccnc2)N2CCc3ccccc3C2)cc1 (stereo unspecified),–,inactive: -12.5%
COc1ccccc1N1CCN(C(=O)CSc2nnc(NC(=O)C(C)C)s2)CC1,"inconclusive: 29.1 µM [cytotoxic, single point]",–
Cc1ccc(Cc2c(-c3ccc(Br)cc3)nc3cc(C)ccn23)cc1,–,inactive: -22.4%
COc1ccc(CCN(C)C(=O)CNC(=O)c2ccccc2F)cc1OC,"inconclusive: 0.58 µM [rising, full curve]",–
CCN(CC)C(=O)[C@H]1C[C@H](CC(=O)NCC23CC4CC(CC(C4)C2)C3)C(=O)N2CCc3c([nH]c4ccc(Cl)cc34)[C@]12C,"inconclusive: 16.4 µM [cytotoxic, partial curve, poor fit]",–
CCCCCOC(=O)c1[nH]c2c(c1C)C(=O)CC(c1ccco1)C2 (stereo unspecified),active: 0.0082 µM,–
COc1cccc(CNc2ccc(N3CCC(C)CC3)cc2)c1OC,active: 20.6 µM,–
Cc1ccc(C(=O)Nc2nc3c(s2)CCCC3)o1,active: 11.6 µM,–
COc1cc(OC)cc(C(=O)Nc2ccc(NC(=O)c3ccco3)c(Cl)c2)c1,"inconclusive: 5.8 µM [cytotoxic, partial curve]",–
CC(=O)c1nn(-c2cccc(Br)c2)cc1C(=O)c1ccc2ccccc2c1,"inconclusive: 32.6 µM [cytotoxic, single point]",–
COc1ccc(OCCOc2ccccc2[N+](=O)[O-])cc1,"inconclusive: 29.1 µM [cytotoxic, single point]",–
COC(=O)CCn1nc(-c2ccc(C)cc2)c2ccccc2c1=O,"inconclusive: 20.6 µM [cytotoxic, single point]",–
Cc1cc(=O)[nH]c(N/N=C/c2c(C)nn(-c3ccccc3)c2Cl)n1,"inconclusive: 20.6 µM [cytotoxic, partial curve, poor fit]",–
COc1cccc(NC(=O)C(c2ccccc2)N2CCN(c3ccccn3)CC2)c1 (stereo unspecified),"inconclusive: 5.8 µM [cytotoxic, partial curve, poor fit]",–
CCC(C)c1ccc(NC(=S)NCc2cccnc2)cc1 (stereo unspecified),active: 18.4 µM,–
O=C(NCc1ccccc1)C1C(c2ccc3c(c2)OCO3)=Nc2ccccc2N1C(=O)c1ccccc1 (stereo unspecified),"inconclusive: 7.31 µM [cytotoxic, partial curve]",–
CSc1ccc(-c2nc3cnccn3c2Nc2ccc3c(c2)OCO3)cc1,active: 23.1 µM,–
COc1ccc(COc2cccnc2N)cc1,–,inactive: -22.5%
CN(C)S(=O)(=O)c1cc(C(=O)Nc2ccccc2C(=O)NC2CC2)ccc1Cl,"inconclusive: 29.1 µM [cytotoxic, single point]",–
FC(F)(F)c1cnc(N2CCC(=NOCc3ccc(Cl)cc3)CC2)c(Cl)c1,"inconclusive: 20.6 µM [cytotoxic, single point]",–

SMILES,Potency,"activity change, negative = cytotoxicity"
CCCOc1ccc(Cc2c(Cl)nc(SC)nc2NC)cc1,"inconclusive: 23.1 µM [cytotoxic, single point]",–
CCN(CC(=O)Nc1ccc(NC(C)=O)cc1)C(=O)c1ccc2c(c1)OCCO2,"inconclusive: 32.6 µM [rising, single point]",–
CCn1c(C)nc2cc(-c3nc4n(n3)Cc3ccccc3-4)ccc21,"inconclusive: 4.61 µM [cytotoxic, partial curve, poor fit]",–
COc1ccc(CNc2nc3ccccc3n2CCN2CCCCC2)c(OC)c1,active: 18.4 µM,–
COc1cc(C)ccc1OCc1cc(C(=O)N2CCC(c3ccc(F)cc3)C2)no1 (stereo unspecified),–,inactive: 18.1%
O=C(Nc1ccccc1N1CCCCC1)c1ccc(-c2ccc(Cl)cc2)o1,active: 20.6 µM,–
CN(Cc1ccccc1)C(=O)c1cccc(NC(=O)c2nsc3ccccc23)c1,–,inactive: -29.5%
COc1ccc(/C=C/C(=O)N(CC(C)C)CC(C)C)cc1Br,active: 20.6 µM,–
O=C(NC1=NCCS1)c1ccc(Cl)c(S(=O)(=O)N2CCc3ccccc32)c1,active: 13 µM,–
CC1=C(C(=O)OCCNC(=O)c2cccnc2)C(c2cccc([N+](=O)[O-])c2)C(C(=O)OCCN(C)C)=C(C)N1 (stereo unspecified),–,inconclusive: 0.684%
COc1cc(NC(=O)CSCC(=O)Nc2cccc(C(F)(F)F)c2)c(Cl)cc1Cl,"inconclusive: 23.1 µM [cytotoxic, partial curve, poor fit]",–
c1ccn(-c2ncnc3sc4c(c23)CCCC4)c1,"inconclusive: 23.1 µM [cytotoxic, single point]",–
COC(=O)c1ccc(COc2ccc(C(=O)c3ccccc3)cc2)o1,"inconclusive: 18.4 µM [cytotoxic, single point]",–
Cc1ncnc2nc[nH]c12,active: 10.3 µM,–
Cc1ccn2c(NC3CCCC3)c(-c3ccsc3)nc2c1,"inconclusive: 18.4 µM [cytotoxic, single point]",–
CN1CCN(c2ccc(S(=O)(=O)N3CCCCC3)cc2NC(=O)c2ccc3ccccc3c2)CC1,active: 10.3 µM,–
O=C(Nc1ccccc1Cl)c1ccccc1,–,inactive: -0.0212%
Cc1cc(NS(=O)(=O)c2ccc(NC(=O)/C=C/c3ccc(Br)cc3)cc2)no1,"inconclusive: 23.1 µM [rising, partial curve, poor fit]",–
CC(C)(C)OC(=O)N1CCC(c2c(C(=O)N3CCN(c4ccccn4)CC3)cnn2-c2ccccc2Cl)CC1,–,inactive: 17%
CCOc1ccc2nc(C)cc(Nc3ccc4c(c3)OCCO4)c2c1,"inconclusive: 29.1 µM [cytotoxic, single point]",–
COc1ccc(C(=O)C2CCN(CC(=O)Nc3cc(C)cc(C)c3)CC2)cc1,"inconclusive: 9.2 µM [cytotoxic, partial curve]",–
O=C(CN1C(=O)C(=O)N(CCC2=CCCCC2)C1=O)Nc1ccc(F)cc1F,"inconclusive: 4.11 µM [cytotoxic, full curve]",–
CCCCCCCCOC(=O)C1=C(C)Nc2nnnn2C1c1cccs1 (stereo unspecified),active: 14.6 µM,–

# Pulled by compound from the entries so far:
SMILES,Potency,"activity change, negative = cytotoxicity"
O=C1COC(c2ccccc2)C2CCCCN12 (stereo unspecified),"inconclusive: 29.1 µM [cytotoxic, single point]",–
CC(C)C(c1nnnn1Cc1ccc(F)cc1)N1CCN(C(=O)c2ccco2)CC1 (stereo unspecified),"inconclusive: 9.2 µM [cytotoxic, partial curve]",–
Cc1ccc(S(=O)(=O)N2c3ccccc3OCC2c2ccccc2)cc1 (stereo unspecified),"inconclusive: 29.1 µM [cytotoxic, single point]",–
COc1cc(OC)c(NC(=O)NCc2cccn2Cc2ccccc2)cc1Cl,–,inactive: -22.1%
